In patent US20250136711A1 (SHANGHAI BIOTROY BIOTECHNIQUE, published 2025) one finds binding data, which are given here for one molecule.

Sequences of proteins named here, by UniProt entry; tags and fusion partners are left off. Residues count along the entry.
UniProt P04279, residues 24-462: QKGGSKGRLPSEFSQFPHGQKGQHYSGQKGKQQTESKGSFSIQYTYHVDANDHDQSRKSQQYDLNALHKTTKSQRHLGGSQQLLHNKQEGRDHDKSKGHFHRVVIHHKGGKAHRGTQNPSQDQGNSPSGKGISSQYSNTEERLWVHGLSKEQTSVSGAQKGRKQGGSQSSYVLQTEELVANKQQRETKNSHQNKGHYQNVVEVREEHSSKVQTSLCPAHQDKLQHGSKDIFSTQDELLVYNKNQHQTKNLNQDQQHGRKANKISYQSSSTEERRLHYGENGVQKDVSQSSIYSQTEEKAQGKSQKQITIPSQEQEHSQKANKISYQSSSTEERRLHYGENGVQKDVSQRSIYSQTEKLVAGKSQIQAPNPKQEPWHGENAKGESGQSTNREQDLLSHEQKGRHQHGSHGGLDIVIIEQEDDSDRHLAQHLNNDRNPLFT

No constants are given. Whether binding was seen depends on the method and setting. Some entries that bind do so weakly or less than the wild type.

Assay [1] addresses T1, BSA-S1 polypeptide of SEMG1 (human).
T1 sequence (peptide, printed with the prefix 'BSA-' at the N-terminus (BSA conjugate)): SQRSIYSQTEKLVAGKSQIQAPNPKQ
Kind of assay: ELISA on coated peptide; antibody at 2.5 ug/mL; positive if OD ratio to blank >3. On the technique in general: In an ELISA, binding on a coated surface is turned into a signal by an enzyme label.

Assay [2] deals with SEMG1 recombinant protein (semenogelin-1) (human) (UniProt P04279). In words: ELISA; full-length SEMG1 coated as positive control, antibody at 2.5 ug/mL.

B1: 4-D9-G6-H6 (antibody, V domains shown)
VH: QIQLVQSGPELKKPGETVKISCKASGYTFTNYGMNWVKQSPGKGLKWMGGINTNTGEPTYNEEFKGRFAFSLETSARTAYLRINNLKNEDTATYFCTRSVFALDYWGQGTSVTVSS
VL: DVVMTQTPLSLPVSLGDQASISCRSSQSLVHSNGNTYLQWYLQKPGQSPKLLIYKVSNRFSGVPDRFSGSGSGTDFTLKISRVEAEDLGVYFCSQSKHVPRTFGGGTKLEIK
With B1, the binding result in assay [1] and in assay [2] was “binds” throughout.
